For 3 substances, conjugation yield and difficulty met results are on record in US7745377B2 (priority 2000, dated 2010).

A short description of this data set: general procedure: Boc solid-phase peptide synthesis; TAMPAL thioester-linker resin; in situ neutralization protocols; DIC/N-hydroxysuccinimide for the SAOD residue. Conditions: conjugation step.

NH2-AKAARAAAAK*AARACA-CO2H returned a conjugation yield of 90%. The substance further yielded a conjugation yield (recovered yield) of 70%.
“labeled LY-(SAOD)-AGCEYRIDRVRLFVDKLDNIAQVPRVGAAHHHHHH”: the conjugation yield result is recorded as “approximately 50%” and the difficulty met entry was “it was difficult to achieve high yields”.
The like results for “SAOD-KKKEKERPEISLPSDFEHTIH-VGFDACTGEFTGMPEQWARLLQT” were, in that order, “˜50% yield by HPLC quantitation” and “isolation of labeled SAOD-PBD by RP-HPLC proved difficult”.
